These are yes or no findings as the source states them, for the method shown. Some results given as binding are weak or reduced against the parent protein; the word gives no strength.
Legend:
[1] = target: DLL3 (as tested in FIG. 7) (UniProt Q9NYJ7); experiment: FIG. 7 legend; assay not described
[2] = target: Histidine-tagged DLL3 antigen (DLL3-His) (Homo sapiens (Human)) (UniProt Q9NYJ7); experiment: Carterra array SPR epitope binning with DLL3-His
[3] = target: DLL3 (as tested in FIG. 7) (UniProt Q9NYJ7); experiment: FIG. 7; assay not described

By UniProt entry, the sequences of proteins in these tests, tags left out. Residues count along the entry.
UniProt Q9NYJ7, residues 27-492: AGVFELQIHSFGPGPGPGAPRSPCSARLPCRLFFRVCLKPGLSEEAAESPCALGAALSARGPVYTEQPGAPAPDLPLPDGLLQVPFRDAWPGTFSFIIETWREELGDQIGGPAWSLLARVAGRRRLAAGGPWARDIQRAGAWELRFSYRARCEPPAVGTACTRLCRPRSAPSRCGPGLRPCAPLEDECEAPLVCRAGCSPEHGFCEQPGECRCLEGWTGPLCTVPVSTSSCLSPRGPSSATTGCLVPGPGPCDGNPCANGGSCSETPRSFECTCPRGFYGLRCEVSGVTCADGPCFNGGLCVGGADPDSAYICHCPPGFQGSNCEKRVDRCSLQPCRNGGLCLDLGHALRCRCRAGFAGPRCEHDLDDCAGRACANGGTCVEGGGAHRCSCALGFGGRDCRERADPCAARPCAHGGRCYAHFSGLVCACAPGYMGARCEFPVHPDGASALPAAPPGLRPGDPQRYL

- binding [1]: binds
- binding [2]: binds
- binding [3]: binds
B1: 2-C8-A (antibody, V domains shown)
VH: EVQLVESGGGLVQPGGSQRLSCAASGFTFSSYWMNWVRQAPGKGLEWVANIKEDGSEKYYVDSVKGRFTISRDNAKNSLYLQMNSLRAEDTAVYYCARDPGWAPFDYWGQGTLVTVSS
VL: DIQMSQSPSSLSASVGDRVTITCRASQGISNYLAWFQQKPGKAPKSLIYAASSLQSGVPSKFSGSGSGTDFTLAISSLQPEDFATYYCQQYNSFPYTFGQGTTLEIK
